PubChem BioAssay AID1671190 (National Center for Advancing Translational Sciences (NCATS), 2021)
Among all 580,000 compounds or so, about 6,100 (1.1%) were called active. The shares of active, inactive and inconclusive entries below differ from those in the screen. Calls follow the shape of the dose curve; as a rule, active = well fitted inhibition curve with a large enough effect; inconclusive = small, poorly fitted or top-dose-only effect, or another doubt; inactive = no such curve, though single readings can be large or run the other way. Potencies of inconclusive entries are doubtful fits and often do not repeat.

Protein sequences, listed by entry. Tags and fused reporters are not part of them. Lines headed by an entry give the natural chain unless they say otherwise; changes in a name come on top.
UniProt P18054: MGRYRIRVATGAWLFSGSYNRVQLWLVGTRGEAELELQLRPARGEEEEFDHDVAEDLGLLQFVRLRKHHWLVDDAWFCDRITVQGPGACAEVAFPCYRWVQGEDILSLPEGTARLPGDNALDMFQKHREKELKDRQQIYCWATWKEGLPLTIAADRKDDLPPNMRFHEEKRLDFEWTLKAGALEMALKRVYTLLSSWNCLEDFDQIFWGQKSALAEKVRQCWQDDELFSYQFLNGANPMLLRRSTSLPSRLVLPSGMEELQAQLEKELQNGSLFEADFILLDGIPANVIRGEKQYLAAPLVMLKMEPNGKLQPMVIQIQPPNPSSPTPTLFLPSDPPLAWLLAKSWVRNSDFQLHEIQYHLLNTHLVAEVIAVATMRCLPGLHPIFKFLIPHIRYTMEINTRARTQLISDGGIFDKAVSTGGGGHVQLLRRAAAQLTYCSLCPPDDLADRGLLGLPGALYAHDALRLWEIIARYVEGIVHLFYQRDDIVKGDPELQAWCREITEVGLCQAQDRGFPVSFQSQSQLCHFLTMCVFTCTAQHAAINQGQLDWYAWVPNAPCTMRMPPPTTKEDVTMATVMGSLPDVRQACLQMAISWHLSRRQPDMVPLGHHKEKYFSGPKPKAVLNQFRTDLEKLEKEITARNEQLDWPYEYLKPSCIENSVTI

Each molecule was assayed against Polyunsaturated fatty acid lipoxygenase ALOX12 (Homo sapiens) (UniProt P18054) (assay: Primary qHTS assay for inhibitors of human arachidonate 12S-lipoxygenase (ALOX12): Round 2). Settings: purified 12hLO, xylenol orange hydroperoxide absorbance; series mostly up to 108 µM.
Outline: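 Purified human 12hLO (150 nM final) in 25 mM Hepes, 0.01% Triton X-100, pH 7.0 was preincubated 15 min at room temperature with compound. Then 40 uM arachidonic acid was added, 30 min. Hydroperoxide was read by Fe-XO absorbance ratio 573/405 nm.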
Potency is read from the fitted curve at half-maximal effect.

Compound	Potency
O=C(NC(=S)NNC(=O)c1ccccc1O)c1ccc(F)cc1	inconclusive: 0.794 µM [inhibitor, full curve, poor fit]
COC(=O)CCC(=O)OC1(C)C(=O)C=C2C=C(C3CC3)N(c3ccccc3)C=C2C1=O (stereo not given)	inconclusive: 50.1 µM [inhibitor, partial curve, poor fit]
CN(C)CCNS(=O)(=O)c1ccc(Cl)cc1	inconclusive: 35.5 µM [inhibitor, partial curve, poor fit]
C=CCOC(=O)C1=C(C)NC(C)=C(C(=O)OCC=C)C1c1cccs1	inconclusive: 79.4 µM [inhibitor, partial curve, poor fit]
S=C(Nc1ccccc1Cl)N(Cc1ccccc1)c1ccccc1	inconclusive: 31.6 µM [inhibitor, partial curve, poor fit]
O=C1NC(=S)SC1=C1CCCC1	inconclusive: 31.6 µM [inhibitor, single point]
O=C(/C=C/c1cn(CC(O)CN2CCCCCC2)c2ccccc12)c1ccc(Br)cc1 (stereo not given)	inconclusive: 56.2 µM [inhibitor, partial curve]
COc1ccc(C(=O)Sc2ccc(Cl)cc2)cc1	inconclusive: 39.8 µM [inhibitor, partial curve, poor fit]
CN(C)c1ccc(-c2ccnc(N[C@H]3CO[C@H]4[C@@H]3OC[C@H]4OC(=O)Nc3ccc(Oc4ccccc4)cc3)n2)cc1	inconclusive: 22.4 µM [inhibitor, full curve]
Cc1ccc(-c2nc3ccccn3c2Nc2ccc3c(c2)OCO3)o1	inconclusive: 79.4 µM [inhibitor, partial curve, poor fit]
O=C(O)C[C@@H]1CCN(C(=O)Cc2ccccc2)C[C@@H]1CCN1CCC[C@H]1C(=O)O	inconclusive: 35.5 µM [inhibitor, partial curve, poor fit]
CCCOc1ccc(CCNC(=O)C2NCCc3[nH]cnc32)cc1OC (stereo not given)	inconclusive: 12.6 µM [inhibitor, partial curve]
COc1ccc2cc1Nc1ccc(cc1)C[C@H](NCc1ccncc1)C(=O)N(C)[C@H](C(=O)NCc1ccc(OC(F)(F)F)cc1)C2	inconclusive: 25.1 µM [inhibitor, full curve, poor fit]
OC(c1ccc(Cl)cc1)C(CN1CCOCC1)c1ccccc1 (stereo not given)	inconclusive: 56.2 µM [inhibitor, single point]
CCN1c2cc(C(=O)Nc3ccc(C)cc3)ccc2C(=O)N2CCCCCC21 (stereo not given)	inconclusive: 20 µM [inhibitor, full curve, poor fit]
O=C(Nc1cccnc1)c1sc(Nc2ccccc2F)nc1-c1ccccc1	inactive
Cc1ccc(CN(C)C(=O)CSc2nc(-c3cccs3)nc3ccccc23)o1	inconclusive: 35.5 µM [inhibitor, full curve, poor fit]
O=C(Nc1nc(=O)c2ccccc2s1)c1ccc(Cl)cc1	inconclusive: 35.5 µM [inhibitor, single point]
COc1ccc(-n2cc(CNCCc3nc(C)cc(C)n3)c(-c3ccccc3Cl)n2)cc1	inactive
CN(C)C(=O)N(C)Cc1cccc(C(F)(F)F)c1	inconclusive: 8.91 µM [inhibitor, full curve]

Some of these compounds in order of heavy-atom count, rising:
Compound	Potency
O=C1NC(=S)SC1=C1CCCC1	inconclusive: 31.6 µM [inhibitor, single point]
COc1ccc(C(=O)Sc2ccc(Cl)cc2)cc1	inconclusive: 39.8 µM [inhibitor, partial curve, poor fit]
Cc1ccc(-c2nc3ccccn3c2Nc2ccc3c(c2)OCO3)o1	inconclusive: 79.4 µM [inhibitor, partial curve, poor fit]
CCCOc1ccc(CCNC(=O)C2NCCc3[nH]cnc32)cc1OC (stereo not given)	inconclusive: 12.6 µM [inhibitor, partial curve]
O=C(Nc1cccnc1)c1sc(Nc2ccccc2F)nc1-c1ccccc1	inactive
COc1ccc(-n2cc(CNCCc3nc(C)cc(C)n3)c(-c3ccccc3Cl)n2)cc1	inactive
CN(C)c1ccc(-c2ccnc(N[C@H]3CO[C@H]4[C@@H]3OC[C@H]4OC(=O)Nc3ccc(Oc4ccccc4)cc3)n2)cc1	inconclusive: 22.4 µM [inhibitor, full curve]

Next records:

Compound	Potency
O=C(OCc1cn([C@H]2CN(CC3CCCCC3)[C@@H](c3ccc(Cl)cc3)C[C@@H]2O)nn1)c1ccccc1	inactive
COc1ccccc1Cc1c(-c2ccc(OC)c(OC)c2)nc2ccc(Br)cn12	inconclusive: 50.1 µM [inhibitor, partial curve, poor fit]
COc1cccc(NS(=O)(=O)c2ccc3c(c2)CCCN3C(=O)C2CCC2)c1	inconclusive: 112 µM [inhibitor, partial curve, poor fit]
CCN1CCN(C(c2nnnn2Cc2ccc3c(c2)OCO3)C(C)C)CC1 (stereo not given)	inconclusive: 28.2 µM [inhibitor, single point]
O=C(O)CC(NCc1ccccc1)c1ccccc1 (stereo not given)	inactive
CC(C)CN1CC[C@H]2COC(=O)N2c2cc(F)ccc2C1	inconclusive: 112 µM [inhibitor, partial curve, poor fit]
Cc1cccc(N2CCN(C(=O)C3CCN(S(=O)(=O)c4cn(C)c(C)n4)CC3)CC2)c1C	inconclusive: 44.7 µM [inhibitor, partial curve, poor fit]
O=C1C(=Cc2ccco2)CCC1=Cc1ccco1	active: 35.5 µM
COc1ccc(-c2c(C)oc3cc(OC)ccc3c2=O)cc1	inconclusive: 112 µM [inhibitor, partial curve, poor fit]
Cc1ccc(C)c(-n2c(-c3csc(C)c3)n[nH]c2=S)c1	inconclusive: 20 µM [inhibitor, full curve, poor fit]
CC(=O)NC1(C)CCCN(Cc2ccc(Oc3ccccc3)cc2)C1 (stereo not given)	inactive
COc1cc(NC(=O)CC[C@H]2NC(=O)c3ccccc3NC2=O)ccc1-n1nc(C)cc1C	inactive
CN1CCC(OC(=O)c2cc3cc(Cl)cc(Cl)c3oc2=O)CC1	inconclusive: 39.8 µM [inhibitor, partial curve, poor fit]
CCOC(=O)C1=CN(Cc2cccc(Br)c2)S(=O)(=O)N(CC)C1C (stereo not given)	inactive
Cc1ccc(C)c(-n2nnnc2SCc2nc3ccccc3o2)c1	inactive
CCOc1ccccc1-c1cnc(NC)cn1	inconclusive: 100 µM [inhibitor, single point]
Cc1cc(C)n(-c2ncnc3scc(-c4ccccc4Cl)c23)n1	inactive
CSCCC(C(=O)Nc1c(C)cccc1C)N1CCN(c2ccc(F)cc2)CC1 (stereo not given)	inconclusive: 2.24 µM [inhibitor, partial curve, poor fit]
Cc1ccc(OCC(O)Cn2c(NCCO)nc3c2c(=O)[nH]c(=O)n3C)cc1 (stereo not given)	inconclusive: 7.94 µM [inhibitor, full curve, poor fit]
O=S1(=O)CC(N2CCN(Cc3ccccc3F)CC2)CN1Cc1cn(Cc2cccc(C(F)(F)F)c2)nn1 (stereo not given)	inconclusive: 44.7 µM [inhibitor, partial curve, poor fit]
